Experimental data published in patent US6518307B2, “Control of microbial populations in the gastrointestinal tract of animals” (Lynntech, Inc., priority 2000, dated 2003).

How the values were obtained:
[1] = Acceptance of drinking water biocides by broilers (Examples 1 and 2); format: in vivo
[2] = Palatability of peroxy acids in drinking water of broilers (weight change after 2 h); format: in vivo, broiler chickens; settings: 0.05% in drinking water, two hours after seven-hour water removal

Compound | palatability / water refusal in drinking water [1] | palatability (water consumption, indirectly by weight) [2]
O=[O+][O-] [Ozone] | very palatable | –
CC(=O)OO [peracetic acid] | – | significant water refusal
